Laboratory results from patent US10195255B2, “GLP-1 derivatives and uses thereof” (Novo Nordisk A/S, priority 2013, dated 2019).
At least one compound was matched to its structure with a doubt left. Where a SMILES comes first, the peptide text is derived from it. [ ]: non-standard residue; d: D form. The star is where a group is joined. X3 = O=C(O)CCCCCCCCCCCCCCCCCCC(=O)NCC1CCC(C(=O)N[C@@H](CCC(=O)NCCOCCOCC(=O)NCCOCCOCC(=O)NCCCC[C@H](NC(=O)COCCOCCNC(=O)COCCOCCNC(=O)CC[C@H](NC(=O)C2CCC(CNC(=O)CCCCCCCCCCCCCCCCCCC(=O)O)CC2)C(=O)O)C(=O)*)C(=O)O)CC1; X2 = O=C(O)CCCCCCCCCCCCCCCCCCC(=O)N1CCC(C(=O)N[C@@H](CCC(=O)NCCOCCOCC(=O)NCCOCCOCC(=O)NCCCC[C@H](NC(=O)COCCOCCNC(=O)COCCOCCNC(=O)CC[C@H](NC(=O)C2CCN(C(=O)CCCCCCCCCCCCCCCCCCC(=O)O)CC2)C(=O)O)C(=O)*)C(=O)O)CC1; Aib = CC(C)(N)C(=O)O

Amino acid sequences for entries named in this document (tags omitted). Residues count along the entry.
UniProt P43220, 24-463: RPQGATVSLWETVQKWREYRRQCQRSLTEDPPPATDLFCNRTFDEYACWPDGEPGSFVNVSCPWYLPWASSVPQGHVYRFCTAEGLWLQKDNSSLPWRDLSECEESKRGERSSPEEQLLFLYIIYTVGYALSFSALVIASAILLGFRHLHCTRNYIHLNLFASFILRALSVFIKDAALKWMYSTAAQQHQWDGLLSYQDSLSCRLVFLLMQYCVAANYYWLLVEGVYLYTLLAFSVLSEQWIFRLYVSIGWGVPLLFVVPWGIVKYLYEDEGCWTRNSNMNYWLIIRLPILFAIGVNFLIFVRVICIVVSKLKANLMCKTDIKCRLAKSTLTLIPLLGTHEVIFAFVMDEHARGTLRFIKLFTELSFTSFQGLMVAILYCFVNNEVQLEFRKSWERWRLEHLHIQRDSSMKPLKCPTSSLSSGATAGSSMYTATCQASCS

Legend:
human GLP-1 receptor = molecular target: T1, human GLP-1 receptor (Homo sapiens, UniProt P43220); test: GLP-1 receptor binding: competitive 125I-GLP-1 SPA binding assay on isolated membranes, low and high HSA; settings: read-out: High HSA IC50; high serum albumin (2.0% HSA final assay concentration)
T1 construct: expressed in transfected cells; host or cells: membrane preparation from BHK cells (parent line BHKTS13), clone FCW467-12A

db/db mice = test: Pharmacodynamic single-dose study in db/db mice (blood glucose and body weight); assay type: in vivo, mouse; settings: negative = reduction; for % change in blood glucose 48 h / % change in blood glucose 96 h: vs basal level; for % change in body weight 48 h / % change in body weight 96 h: vs basal

Structure (SMILES): CC[C@H](C)[C@H](NC(=O)[C@H](Cc1ccccc1)NC(=O)[C@H](CCC(=O)O)NC(=O)[C@H](CCCNC(=N)N)NC(=O)[C@H](C)NC(=O)[C@H](C)NC(=O)[C@H](CCC(N)=O)NC(=O)[C@H](CCC(=O)O)NC(=O)[C@H](CCC(=O)O)NC(=O)[C@H](CC(C)C)NC(=O)[C@H](Cc1ccc(O)cc1)NC(=O)[C@H](CO)NC(=O)[C@H](CO)NC(=O)[C@@H](NC(=O)[C@H](CC(=O)O)NC(=O)[C@H](CO)NC(=O)[C@@H](NC(=O)[C@H](Cc1ccccc1)NC(=O)[C@@H](NC(=O)CNC(=O)[C@H](CCC(=O)O)NC(=O)C(C)(C)NC(=O)[C@@H](N)Cc1c[nH]cn1)[C@@H](C)O)[C@@H](C)O)C(C)C)C(=O)N[C@@H](C)C(=O)N[C@@H](Cc1c[nH]c2ccccc12)C(=O)N[C@@H](CC(C)C)C(=O)N[C@H](C(=O)N[C@@H](CCCNC(=N)N)C(=O)NCC(=O)N[C@@H](CCCNC(=N)N)C(=O)NCC(=O)N[C@@H](CCCCNC(=O)[C@H](CCCCNC(=O)COCCOCCNC(=O)COCCOCCNC(=O)CC[C@H](NC(=O)C1CCN(C(=O)CCCCCCCCCCCCCCCCCCC(=O)O)CC1)C(=O)O)NC(=O)COCCOCCNC(=O)COCCOCCNC(=O)CC[C@H](NC(=O)C1CCN(C(=O)CCCCCCCCCCCCCCCCCCC(=O)O)CC1)C(=O)O)C(=O)O)C(C)C [Example 18, N{Alpha}([Aib8,Glu22,Arg26,Arg34]-GLP-1-(7-37)-peptidyl)-N{Epsilon}[(2S)-2,6-bis[[2-[2-[2-[[2-[2-[2-[[(4S)-4-carboxy-4-[[1-(19-carboxynonadecanoyl)piperidine-4-carbonyl]amino]butanoyl]amino]ethoxy]ethoxy]acetyl]amino]ethoxy]ethoxy]acetyl]amino]hexanoyl]Lys] (H-H[Aib]EGTFTSDVSSYLEEQAAREFIAWLVRGRGK(X2)-OH)
- IC50 (human GLP-1 receptor): 68 nM
- % change in blood glucose 48 h (db/db mice; single s.c. dose 30 nmol/kg): −36%
- % change in body weight 48 h (db/db mice; single s.c. dose 30 nmol/kg): −4%
- % change in blood glucose 96 h (db/db mice; single s.c. dose 30 nmol/kg): −14%
- % change in body weight 96 h (db/db mice; single s.c. dose 30 nmol/kg): −3%

Structure (SMILES): CC[C@H](C)[C@H](NC(=O)[C@H](Cc1ccccc1)NC(=O)[C@H](CCC(=O)O)NC(=O)[C@H](CCCNC(=N)N)NC(=O)[C@H](C)NC(=O)[C@H](C)NC(=O)[C@H](CCC(N)=O)NC(=O)[C@H](CCC(=O)O)NC(=O)[C@H](CCC(=O)O)NC(=O)[C@H](CC(C)C)NC(=O)[C@H](Cc1ccc(O)cc1)NC(=O)[C@H](CO)NC(=O)[C@H](CO)NC(=O)[C@@H](NC(=O)[C@H](CC(=O)O)NC(=O)[C@H](CO)NC(=O)[C@@H](NC(=O)[C@H](Cc1ccccc1)NC(=O)[C@@H](NC(=O)CNC(=O)[C@H](CCC(=O)O)NC(=O)C(C)(C)NC(=O)[C@@H](N)Cc1c[nH]cn1)[C@@H](C)O)[C@@H](C)O)C(C)C)C(=O)N[C@@H](C)C(=O)N[C@@H](Cc1c[nH]c2ccccc12)C(=O)N[C@@H](CC(C)C)C(=O)N[C@H](C(=O)N[C@@H](CCCNC(=N)N)C(=O)NCC(=O)N[C@@H](CCCNC(=N)N)C(=O)N[C@@H](CCCCNC(=O)[C@H](CCCCNC(=O)CCOCCOCCOCCOCCNC(=O)CCOCCOCCOCCOCCNC(=O)CCOCCOCCOCCOCCNC(=O)CC[C@H](NC(=O)C1CCC(CNC(=O)CCCCCCCCCCCCCCCCCCC(=O)O)CC1)C(=O)O)NC(=O)CCOCCOCCOCCOCCNC(=O)CCOCCOCCOCCOCCNC(=O)CCOCCOCCOCCOCCNC(=O)CC[C@H](NC(=O)C1CCC(CNC(=O)CCCCCCCCCCCCCCCCCCC(=O)O)CC1)C(=O)O)C(=O)O)C(C)C (stereo partly drawn) [Example 22, N{Epsilon-37}-[(2S)-2,6-bis[3-[2-[2-[2-[2-[3-[2-[2-[2-[2-[3-[2-[2-[2-[2-[[(4S)-4-carboxy-4-[[4-[(19-carboxynonadecanoylamino)methyl]cyclohexanecarbonyl]amino]butanoyl]amino]ethoxy]ethoxy]ethoxy]ethoxy]propanoylamino]ethoxy]ethoxy]ethoxy]ethoxy]propanoylamino]ethoxy]ethoxy]ethoxy]ethoxy]propanoylamino]hexanoyl]-[Aib8,Glu22,Arg26,Arg34,Lys37]-GLP-1-(7-37)-peptide]
- % change in blood glucose 48 h (db/db mice; single s.c. dose 10 nmol/kg): −50%
- % change in body weight 48 h (db/db mice; single s.c. dose 10 nmol/kg): −4%
- % change in blood glucose 96 h (db/db mice; single s.c. dose 10 nmol/kg): −29%
- % change in body weight 96 h (db/db mice; single s.c. dose 10 nmol/kg): −1%

Structure (SMILES): CC[C@H](C)[C@H](NC(=O)[C@H](Cc1ccccc1)NC(=O)[C@H](CCC(=O)O)NC(=O)[C@H](CCCNC(=N)N)NC(=O)[C@H](C)NC(=O)[C@H](C)NC(=O)[C@H](CCC(N)=O)NC(=O)[C@H](CCC(=O)O)NC(=O)[C@H](CCC(=O)O)NC(=O)[C@H](CC(C)C)NC(=O)[C@H](Cc1ccc(O)cc1)NC(=O)[C@H](CO)NC(=O)[C@H](CO)NC(=O)[C@@H](NC(=O)[C@H](CC(=O)O)NC(=O)[C@H](CO)NC(=O)[C@@H](NC(=O)[C@H](Cc1ccccc1)NC(=O)[C@@H](NC(=O)CNC(=O)[C@H](CCC(=O)O)NC(=O)C(C)(C)NC(=O)[C@@H](N)Cc1c[nH]cn1)[C@@H](C)O)[C@@H](C)O)C(C)C)C(=O)N[C@@H](C)C(=O)N[C@@H](Cc1c[nH]c2ccccc12)C(=O)N[C@@H](CC(C)C)C(=O)N[C@H](C(=O)N[C@@H](CCCNC(=N)N)C(=O)NCC(=O)N[C@@H](CCCNC(=N)N)C(=O)NCC(=O)NCC(=O)N[C@@H](CO)C(=O)N[C@@H](CCCCNC(=O)[C@H](CCCCNC(=O)COCCOCCNC(=O)COCCOCCNC(=O)CC[C@H](NC(=O)C1CCC(CNC(=O)CCCCCCCCCCCCCCCCCCC(=O)O)CC1)C(=O)O)NC(=O)COCCOCCNC(=O)COCCOCCNC(=O)CC[C@H](NC(=O)C1CCC(CNC(=O)CCCCCCCCCCCCCCCCCCC(=O)O)CC1)C(=O)O)C(=O)O)C(C)C (stereo partly drawn) [Example 3, [Aib8,Glu22,Arg26,Arg34]-GLP-1-(7-37)-peptidyl-Gly-Ser-N{Epsilon}[(2S)-2,6-bis[[2-[2-[2-[[2-[2-[2-[[(4S)-4-carboxy-4-[[4-[(19-carboxynonadecanoylamino)methyl]cyclohexanecarbonyl]amino]butanoyl]amino]ethoxy]ethoxy]acetyl]amino]ethoxy]ethoxy]acetyl]amino]hexanoyl]Lys] (H-H[Aib]EGTFTSDVSSYLEEQAAREFIAWLVRGRGGSK(X3)-OH)
- % change in blood glucose 48 h (db/db mice; single s.c. dose 100 nmol/kg): −62%
- % change in body weight 48 h (db/db mice; single s.c. dose 100 nmol/kg): −7%
- % change in blood glucose 96 h (db/db mice; single s.c. dose 100 nmol/kg): −41%
- % change in body weight 96 h (db/db mice; single s.c. dose 100 nmol/kg): −5%
